No constants are given. Whether binding was seen depends on the method and setting. Binding seen in cells or lysates may run through a third protein. Some entries that bind do so weakly or less than the wild type.
What was measured:
[1] = target: Ferritin light-chain domain in ADI-transfected cells (human (endogenous in the ADI-transfected human cell lines)) (UniProt P02792); assay: co-IP; ADI-transfected cells; immunoprecipitation with antibodies specific for ADI or FTL, immunoprecipitates separated by SDS-PAGE and blotted with the indicated antibodies
[2] = target: Arginine deiminase with C-terminal c-myc tag, expressed in the cytosol (pcDNA4-ADI) (UniProt P23793); assay: as above

The chains behind the UniProt entries cited, without tags or fusion partners.
UniProt P02792: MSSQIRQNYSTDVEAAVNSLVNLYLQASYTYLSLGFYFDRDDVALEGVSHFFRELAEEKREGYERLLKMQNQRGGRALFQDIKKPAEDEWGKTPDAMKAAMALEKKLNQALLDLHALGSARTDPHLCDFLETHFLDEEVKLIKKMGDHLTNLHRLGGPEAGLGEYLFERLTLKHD
UniProt P23793: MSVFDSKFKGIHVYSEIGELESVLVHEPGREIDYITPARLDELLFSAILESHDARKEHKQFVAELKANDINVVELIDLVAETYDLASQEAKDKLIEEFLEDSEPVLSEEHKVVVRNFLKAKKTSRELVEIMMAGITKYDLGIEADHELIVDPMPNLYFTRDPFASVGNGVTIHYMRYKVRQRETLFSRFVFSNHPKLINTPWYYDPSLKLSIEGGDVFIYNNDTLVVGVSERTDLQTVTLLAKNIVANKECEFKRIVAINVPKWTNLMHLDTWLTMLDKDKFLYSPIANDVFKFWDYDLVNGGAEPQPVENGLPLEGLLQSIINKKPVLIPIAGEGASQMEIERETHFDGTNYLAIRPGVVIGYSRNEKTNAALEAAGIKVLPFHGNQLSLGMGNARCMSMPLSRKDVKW

| Substance | binding [1] | binding [2] |
| --- | --- | --- |
| Arginine deiminase with C-terminal c-myc tag, expressed in the cytosol (pcDNA4-ADI) (from UniProt P23793 1-410) (enzyme) | binds |  |
| Ferritin light-chain domain in ADI-transfected cells (from UniProt P02792 1-175) |  | binds |

Reference: publication PMC7367323
